Measured values published in PMC7768192.
No constants are given. Whether binding was seen depends on the method and setting. In cells and extracts the contact can be indirect. Some results given as binding are weak or reduced against the parent protein; the word gives no strength.

Chains of the proteins cited; added tags and fusions are not shown.
UniProt Q8NEG4: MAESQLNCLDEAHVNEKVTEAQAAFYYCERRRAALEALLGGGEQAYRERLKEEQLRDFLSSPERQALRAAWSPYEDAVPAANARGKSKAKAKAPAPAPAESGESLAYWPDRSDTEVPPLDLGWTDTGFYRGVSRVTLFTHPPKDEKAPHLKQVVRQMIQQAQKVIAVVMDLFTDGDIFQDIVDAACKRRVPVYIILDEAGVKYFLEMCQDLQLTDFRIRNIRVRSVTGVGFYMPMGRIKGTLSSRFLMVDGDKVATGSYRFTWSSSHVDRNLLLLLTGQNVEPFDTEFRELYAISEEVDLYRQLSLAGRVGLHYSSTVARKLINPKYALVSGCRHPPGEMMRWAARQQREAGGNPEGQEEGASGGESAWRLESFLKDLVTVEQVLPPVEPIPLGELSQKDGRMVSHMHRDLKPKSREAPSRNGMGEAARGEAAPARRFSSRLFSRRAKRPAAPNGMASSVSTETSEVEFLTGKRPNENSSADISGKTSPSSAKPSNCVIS
UniProt P48729: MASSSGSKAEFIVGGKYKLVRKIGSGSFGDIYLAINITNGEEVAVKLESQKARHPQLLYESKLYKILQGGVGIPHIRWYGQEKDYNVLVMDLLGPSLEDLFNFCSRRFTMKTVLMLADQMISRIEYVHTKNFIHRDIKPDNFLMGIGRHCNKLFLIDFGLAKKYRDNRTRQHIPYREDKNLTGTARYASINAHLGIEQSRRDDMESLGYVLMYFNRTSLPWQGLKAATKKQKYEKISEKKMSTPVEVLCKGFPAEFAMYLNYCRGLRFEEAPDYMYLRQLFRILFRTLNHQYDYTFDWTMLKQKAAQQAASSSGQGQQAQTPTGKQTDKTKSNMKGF
UniProt P49674: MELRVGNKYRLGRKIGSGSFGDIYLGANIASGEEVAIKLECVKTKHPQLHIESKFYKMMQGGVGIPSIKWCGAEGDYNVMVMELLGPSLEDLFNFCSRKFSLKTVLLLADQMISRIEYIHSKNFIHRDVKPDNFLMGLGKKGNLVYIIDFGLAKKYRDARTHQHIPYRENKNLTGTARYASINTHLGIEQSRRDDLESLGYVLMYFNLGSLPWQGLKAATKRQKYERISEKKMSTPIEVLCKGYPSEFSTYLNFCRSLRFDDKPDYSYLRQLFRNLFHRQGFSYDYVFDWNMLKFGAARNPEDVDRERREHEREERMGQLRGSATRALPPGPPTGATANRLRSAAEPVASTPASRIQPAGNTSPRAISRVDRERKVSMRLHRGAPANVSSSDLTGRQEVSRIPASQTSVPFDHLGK

Tests used:
[1] = target: GFP-FAM83F (endogenous knock-in, ^GFP/GFPFAM83F) (human (endogenous in HCT116 and DLD-1)) (UniProt Q8NEG4); test: co-IP; GFP-Trap agarose beads on extracts (1 mg protein) of HCT116 and DLD-1 GFP/GFP FAM83F knock-in cells, wild-type cells as control, 16 h at 4°C; Western blot for endogenous CK1α, CK1δ, CK1ε
[2] = target: casein kinase 1α (human (endogenous in U2OS, HCT116 and DLD-1)) (UniProt P48729); test: co-IP; anti-CK1α antibody (1 μg) and Protein G Sepharose on extracts (1 mg protein) of HCT116 and DLD-1 cells (wild-type, FAM83F^-/-, FAM83F^C497A knock-in), untreated or treated with L-CM or Wnt3A-CM for 6 h; Western blot for FAM83F and FAM83G

Row | binding [1] | binding [2] | Substance
1 | no binding |  | CK1ε (from UniProt P49674 1-416) (enzyme)
2 |  | binds | FAM83F (endogenous) (from UniProt Q8NEG4 1-500)
